Measured values from PubChem BioAssay (NCATS).
The inconclusive results got no clear call from the source; some entries with a clear call stand among them for comparison. For some of these results: A potency beside an inconclusive call is a rough fit, not a confirmed value. Calls of active or inactive are those of the source. Unless noted, the call rests on the fitted dose curve; in most records, active means well fitted curve in the direction sought with a large enough effect; inconclusive means small, poorly fitted or top-dose-only effect, or another doubt; inactive means no such curve, though single readings can be large; an effect the other way counts as inactive or inconclusive.

The chains behind the UniProt entries cited, without tags or fusion partners. Where a name states a change or a piece, a line headed by the entry shows the natural chain unless it says otherwise.
UniProt Q14994: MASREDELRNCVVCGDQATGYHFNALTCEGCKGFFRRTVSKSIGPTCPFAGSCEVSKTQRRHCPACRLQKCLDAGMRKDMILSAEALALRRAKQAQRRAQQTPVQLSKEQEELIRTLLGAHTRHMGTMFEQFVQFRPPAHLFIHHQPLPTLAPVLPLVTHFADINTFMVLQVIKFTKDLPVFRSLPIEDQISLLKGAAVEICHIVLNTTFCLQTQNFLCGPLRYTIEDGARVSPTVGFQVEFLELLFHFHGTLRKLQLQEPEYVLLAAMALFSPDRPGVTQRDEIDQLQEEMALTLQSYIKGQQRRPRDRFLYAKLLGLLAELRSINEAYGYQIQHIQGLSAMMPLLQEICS
UniProt P10635, whole entry, looked up: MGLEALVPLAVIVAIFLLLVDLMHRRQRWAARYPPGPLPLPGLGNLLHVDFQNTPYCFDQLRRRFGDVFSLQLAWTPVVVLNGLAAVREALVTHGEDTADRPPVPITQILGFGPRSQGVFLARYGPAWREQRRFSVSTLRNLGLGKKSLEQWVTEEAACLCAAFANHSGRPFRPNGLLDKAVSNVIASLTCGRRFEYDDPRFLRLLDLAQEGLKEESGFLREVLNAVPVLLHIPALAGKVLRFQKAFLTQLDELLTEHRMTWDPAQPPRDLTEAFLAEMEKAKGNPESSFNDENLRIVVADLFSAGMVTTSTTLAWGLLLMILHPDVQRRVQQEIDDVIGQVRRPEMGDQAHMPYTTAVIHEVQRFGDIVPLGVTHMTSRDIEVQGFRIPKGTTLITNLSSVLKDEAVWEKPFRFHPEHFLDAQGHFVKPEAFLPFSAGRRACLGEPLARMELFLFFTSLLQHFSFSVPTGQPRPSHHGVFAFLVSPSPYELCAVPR
UniProt P11712, whole entry, looked up: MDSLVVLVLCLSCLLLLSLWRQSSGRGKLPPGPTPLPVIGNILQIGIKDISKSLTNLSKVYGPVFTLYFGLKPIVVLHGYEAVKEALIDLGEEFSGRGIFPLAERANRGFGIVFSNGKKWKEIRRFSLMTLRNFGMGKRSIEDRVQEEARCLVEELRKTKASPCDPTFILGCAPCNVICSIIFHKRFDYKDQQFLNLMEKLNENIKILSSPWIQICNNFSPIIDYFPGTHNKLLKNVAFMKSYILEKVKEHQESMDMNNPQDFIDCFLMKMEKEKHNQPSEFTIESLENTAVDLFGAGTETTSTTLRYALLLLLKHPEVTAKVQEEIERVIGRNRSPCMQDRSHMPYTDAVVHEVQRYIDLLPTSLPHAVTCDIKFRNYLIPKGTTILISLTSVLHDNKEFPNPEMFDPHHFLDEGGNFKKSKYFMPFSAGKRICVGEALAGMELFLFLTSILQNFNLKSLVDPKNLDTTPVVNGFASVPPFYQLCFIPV
UniProt O75469: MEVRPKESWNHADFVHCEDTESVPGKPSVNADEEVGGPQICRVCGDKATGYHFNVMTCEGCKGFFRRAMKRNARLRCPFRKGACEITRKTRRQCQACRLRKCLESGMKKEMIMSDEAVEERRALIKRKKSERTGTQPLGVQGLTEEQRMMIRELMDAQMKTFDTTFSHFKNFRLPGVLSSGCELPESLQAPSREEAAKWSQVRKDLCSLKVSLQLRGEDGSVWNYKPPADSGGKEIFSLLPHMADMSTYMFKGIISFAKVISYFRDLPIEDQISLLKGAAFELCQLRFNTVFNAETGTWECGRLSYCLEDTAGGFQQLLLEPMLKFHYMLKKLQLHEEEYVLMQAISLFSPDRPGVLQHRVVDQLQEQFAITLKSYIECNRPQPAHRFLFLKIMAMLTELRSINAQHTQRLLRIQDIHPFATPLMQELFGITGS
UniProt P83916, whole entry, looked up: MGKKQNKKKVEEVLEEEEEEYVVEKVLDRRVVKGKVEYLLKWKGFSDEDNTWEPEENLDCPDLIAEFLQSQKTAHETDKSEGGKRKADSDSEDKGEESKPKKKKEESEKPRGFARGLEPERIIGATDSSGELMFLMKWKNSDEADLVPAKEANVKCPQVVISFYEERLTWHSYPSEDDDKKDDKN
UniProt P21728, whole entry, looked up: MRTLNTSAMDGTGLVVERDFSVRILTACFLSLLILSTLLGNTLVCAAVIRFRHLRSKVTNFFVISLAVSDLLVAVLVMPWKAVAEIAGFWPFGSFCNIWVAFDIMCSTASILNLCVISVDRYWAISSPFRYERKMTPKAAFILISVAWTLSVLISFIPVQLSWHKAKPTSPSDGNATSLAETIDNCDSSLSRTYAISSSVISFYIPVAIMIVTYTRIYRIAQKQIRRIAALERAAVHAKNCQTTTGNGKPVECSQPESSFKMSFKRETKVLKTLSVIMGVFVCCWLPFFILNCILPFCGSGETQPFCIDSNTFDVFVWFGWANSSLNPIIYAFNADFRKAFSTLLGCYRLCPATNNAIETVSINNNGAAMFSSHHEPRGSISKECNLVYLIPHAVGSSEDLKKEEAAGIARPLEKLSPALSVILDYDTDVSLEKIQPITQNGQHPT
UniProt Q99828: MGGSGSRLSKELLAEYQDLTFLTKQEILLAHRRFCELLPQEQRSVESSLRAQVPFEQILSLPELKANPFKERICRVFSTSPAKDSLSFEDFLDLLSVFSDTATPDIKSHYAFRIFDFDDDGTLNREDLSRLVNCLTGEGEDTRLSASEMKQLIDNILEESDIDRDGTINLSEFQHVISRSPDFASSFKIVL

Legend:
[1] = Cell Viability - LYMP1-003 - Assay at 40 hr (AID 964); settings: LYMP1-003 lymphoblastoid viability; further: potency means the concentration at half of the fitted maximal effect; nearly all actives have a fitted effect of over 60% in size
Procedure, shortened: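 LYMP1-003 human lymphoblastoid cells, 2500/well, preincubated 5 h at 37 C, then treated with compound for 40 h at 37 C. Intracellular ATP read by CellTiter-Glo luminescence after 30 min at room temperature; AC50 from Hill-equation fits.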

[2] = Cell Viability - LYMP1-002 - Assay at 40 hr (AID 994); settings: LYMP1-002 lymphoblastoid cell viability; further: potency means the concentration at half of the fitted maximal effect; nearly all actives have a fitted effect of over 60% in size
Procedure, shortened: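 LYMP1-002 human lymphoblastoid cells (2500/well, complete medium) were treated with compounds for 40 hr at 37 C. Intracellular ATP was measured by CellTiter-Glo luminescence, and AC50 values came from Hill-equation fits of concentration-response data; tetraoctylammonium bromide was the positive control.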

[3] = qHTS assay for small molecule agonists of the antioxidant response element (ARE) signaling pathway measured by Nrf2-dependant transcriptional activity (AID 720636; active means well fitted curve in the direction sought with a large enough effect in the repeat runs; inconclusive means weak or mixed curves; inactive means no such curve, though single readings can be large; an effect the other way counts as inactive or inconclusive;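 further: HepG2 cells with an ARE-driven luciferase reporter; % of control where 0% means no effect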); settings: ARE-luc HepG2, Nrf2 luciferase reporter, 16 h; series mostly up to 92.4 µM
Procedure, shortened: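 Attachment 6 hr at 37 C, then compound versus DMSO vehicle for 16 hr in ARE-luc HepG2 cells (1% dialyzed FBS); luminescence recorded 30 min after ONE-Glo addition at room temperature.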

[4] = qHTS Assay for Identification of Small Molecule Agonists for Hypoxia Response Element Signaling Pathway (AID 914; active means well fitted activation curve with a large enough effect in the signal ratio, with a control signal flat, not every such curve was filed as active; inconclusive means small, poorly fitted or top-dose-only effect, or effect the other way, or a change in a side signal; the % refers to the signal ratio; further: % of control where 0% means no effect); settings: ME-180 (cervical carcinoma) HRE-bla reporter, beta-lactamase ratio, CoCl2, 17 h; activation: hits give high values
Procedure, shortened: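 HRE-bla ME-180 assay for agonist-like enhancement of an EC50 CoCl2 stimulus: 17 h at 37 degrees Celsius, CCF4 for 2.5 h, ratiometric 460/530 nm signal converted to %Activity and fitted to AC50.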

[5] = molecular target: Nuclear receptor subfamily 1 group I member 3 (Homo sapiens) (UniProt Q14994); test: Primary qHTS for antagonist of constitutive androstane receptor (CAR) against the NCATS DSHEA and TCM libraries (AID 1794836); settings: CAR reporter cell assay, antagonist mode, luciferase; series mostly up to 40 µM;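 further: HepG2 cells stably expressing hCAR with CYP2B6 luciferase reporter stimulated by CITCO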
Procedure, shortened: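 HepG2-CYP2B6-hCAR cells, attached 5 h, given compounds plus CITCO agonist […], incubated 24 h at 37 C. Luciferase luminescence read, multiplexed with CellTiter-Fluor viability (Ex/Em 405/540 nm).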

[6] = molecular target: Cytochrome P450 2D6 (Homo sapiens) (UniProt P10635); test: qHTS for inhibitors of CYP2D6 against the NCATS DSHEA and TCM libraries (AID 1919972); settings: CYP2D6 enzymatic inhibition, luminescence qHTS; further: potency means the concentration at half of the fitted maximal effect
Procedure, shortened: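 Luminescent P450-Glo read-out of CYP2D6 turnover of a luciferin substrate after NADPH-driven reaction of 30-45 min at room temperature. Compounds were first preincubated 15 min with enzyme at titrated concentrations; quinidine was the intraplate control.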

[7] = molecular target: Cytochrome P450 2C9 (Homo sapiens) (UniProt P11712); test: qHTS for inhibitors of CYP2C9 against the NCATS DSHEA and TCM libraries (AID 1919973); settings: recombinant CYP2C9 enzyme activity, luminescence; series mostly up to 7.11 µM; further: potency means the concentration at half of the fitted maximal effect
Procedure, shortened: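 Luminescent P450-Glo format: compounds preincubated 15 min with enzyme and luciferin substrate, reaction run 30-45 min after NADPH regeneration solution. Intraplate controls: ketoconazole for CYP3A4 and CYP2C19, sulfaphenazole for CYP2C9.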

[8] = molecular target: Nuclear receptor subfamily 1 group I member 2 (Homo sapiens) (UniProt O75469); test: Dual reporter qHTS for agonist of Pregnane X Receptor (hPXR) against the NCATS DSHEA and TCM libraries: Luminescence readout (AID 1920059); settings: hPXR dual reporter cells, luciferase luminescence agonist; further: potency means the concentration at half of the fitted maximal effect
Procedure, shortened: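 hPXR-Luc HepG2 cells, 2000/well in 5% charcoal-stripped FBS medium, attached 5 h, then exposed 24 h at 37C to compounds. Viability by CellTiter-Fluor, then luciferase luminescence with ONE-Glo.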

[9] = Vero cells viability qHTS for Zika virus inhibitors (AID 1347167); settings: cytotoxicity counter-screen (Zika); series mostly up to 45.9 µM; further: potency means the concentration at half of the fitted maximal effect
Procedure, shortened: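 Cells seeded at 2.5 x 10^5 cells/mL in DMEM with 4% FBS and attached overnight at 37 degrees C, then exposed to compound for 24 to 48 hours. Viability read as ATP content by CellTiter Glo luminescence.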

[10] = qHTS for differential inhibitors of proliferation of Plasmodium falciparum line 7G8 (AID 1815); settings: Plasmodium falciparum 7G8 proliferation inhibition; series mostly up to 28.7 µM;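 further: potency means the concentration at half of the fitted maximal effect; parasite growth measured after three days of incubation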
[11] = qHTS for differential inhibitors of proliferation of Plasmodium falciparum line HB3 (AID 1886); settings: Potency: Plasmodium falciparum HB3 proliferation inhibition; series mostly up to 28.7 µM;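 further: potency means the concentration at half of the fitted maximal effect; parasites grown with compound for 72 h before SYBR Green readout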
[12] = qHTS Assay for Modulators of Human Peripheral Myelin Protein 22 (PMP22) Expression/Activity (AID 1967; active means well fitted curve in the direction sought with a large enough effect in the signal ratio; inconclusive means small, poorly fitted or top-dose-only effect, or effect the other way, or a change in a side signal; inactive means no such curve, though single readings can be large or run the other way; the % refers to the signal ratio;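 further: 0% = untreated cells and 100% end not stated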); settings: Cell-based PMP22 reporter, dual-color luciferase ratio, mouse Pmp22 promoter in mouse Schwann cells; activity change (ratio): at 115 µM (top of the series), 0% = compound-free control cells
Procedure, shortened: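 Mouse MSC80 Schwann cells carrying Pmp22 promoter–green click beetle luciferase plus EF-alpha–red luciferase control, dosed 24 h at 37 °C. Dual-filter luminescence, overlap-corrected; %Activity from green/red ratio normalised to untreated cells, concentration-response curves fitted.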

[13] = High Content Imaging Cell-Based qHTS for Inhibitors of the mTORC1 Signaling Pathway in MEF Cells (AID 2667); settings: series mostly up to 38.3 µM;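 further: Tsc2-/- p53-/- MEFs stably re-expressing wild-type Tsc2 exposed 24 h; plate controls were DMSO wells for no effect and rapamycin control wells for full effect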
Procedure, shortened: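 WT MEFs (Tsc2-/-, p53-/- re-expressing Tsc2), in DMEM + 10% FBS, were treated with compound for 24 h at 37 C. Cells were then fixed and stained for phospho-rpS6 Ser235/236 with propidium iodide as cell count. Values are % positive cells, with thresholds set against rapamycin-treated cells.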

[14] = molecular target: Chromobox protein homolog 1 (Homo sapiens) (UniProt P83916); test: qHTS Validation Assay for Inhibitors of HP1-beta Chromodomain Interactions with Methylated Histone Tails (AID 488953); settings: HP1-beta chromodomain / methylated histone peptide binding assay; series mostly up to 114 µM; further: potency means the concentration at half of the fitted maximal effect; nearly all actives have a fitted effect of over 50% in size
Procedure, shortened: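 HP1-beta (50 nM) preformed 30 min with biotinylated H3(1-18)K9me3 peptide (50 nM) in PBS pH 7.4, 0.01% Tween-20. Compounds added for 30 min at room temperature. Complex disruption read by AlphaScreen with streptavidin donor/nickel chelate acceptor beads (10 ug/mL each).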

[15] = molecular target: D(1A) dopamine receptor (Homo sapiens) (UniProt P21728); test: HTS Assay for Allosteric Agonists of the Human D1 Dopamine Receptor: Primary Screen for Potentiators (AID 488982); settings: HEK293 T-REx D1 inducible cells, calcium flux, kinetic fluorescence; series mostly up to 8.37 µM; further: 0% is about no effect
Procedure, shortened: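 Tetracycline-induced HEK293 Trex D1 cells with forced coupling to calcium, loaded with no-wash calcium dye; kinetic fluorescence read 180 s after compound addition for agonism, then a further 180 s after an EC20 dopamine challenge for potentiation.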

[16] = molecular target: Calcium and integrin-binding protein 1 (Homo sapiens) (UniProt Q99828); test: Validation qHTS for Identification of Calcium Integrin Binding protein 1 (CIB1) Competitor (AID 1508618); settings: CIB1-GST / FITC-alphaIIb peptide fluorescence polarization; series mostly up to 114 µM; further: potency means the concentration at half of the fitted maximal effect
Procedure, shortened: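 In this qHTS validation, the LOPAC set (up to 114 uM) was tested for blocking CIB1 binding to a fluorescein-tagged alphaIIb peptide, with FP detection at 480/540 nm.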

Compound: COC1=CC(=O)C[C@@H](C)[C@]12Oc1c(Cl)c(OC)cc(OC)c1C2=O
- Potency [1]: inconclusive: 39.8 µM [cytotoxic, partial curve]
- Potency [2]: inconclusive: 39.8 µM [cytotoxic, partial curve]

Compound: CC(C)(c1ccc(O)cc1)c1ccc(O)cc1
- Potency [3]: inactive

Compound: Cc1onc(-c2ccccc2)c1C(=O)N[C@@H]1C(=O)N2[C@@H]1SC(C)(C)[C@@H]2C(=O)O
- activation [4]: inactive: -2.15%

Compound: C=C1CC[C@H](O)CC1=C/C=C1\CCC[C@]2(C)[C@@H]([C@H](C)/C=C/[C@H](C)C(C)C)CC[C@@H]12
- Potency [5]: inactive
- Potency [6]: inconclusive: 25.1 µM [inhibitor, partial curve]
- Potency [7]: inconclusive: 15.8 µM [inhibitor, partial curve, poor fit]
- Potency [8]: inconclusive: 25.1 µM [activator, partial curve]

Compound: CCCCCc1ccc(/C=C/C(=O)Nc2cc(Cl)ccc2C(=O)O)cc1
- Potency [9]: inconclusive: 37 µM [cytotoxic, single point]

Compound: CCCN1C[C@H](CSC)C[C@@H]2c3cccc4[nH]cc(c34)C[C@H]21
- Potency [10]: active: 11.2 µM
- Potency [11]: inconclusive: 12.6 µM [inhibitor, partial curve]
- activity change (ratio) [12]: inconclusive: 9.46%
- Potency [13]: inactive
- Potency [14]: inconclusive: 39.8 µM [inhibitor, partial curve]
- Potency [15]: inactive
- Potency [16]: inconclusive: 50.1 µM [inhibitor, partial curve]
